Results reported in the supplement of paper PMC7666118.
The list shows a part of the results.

Amino acid sequences for entries named in this document (tags omitted). A change or cut given only in a name is not applied to a line headed by its entry.
UniProt P02786, whole entry, looked up: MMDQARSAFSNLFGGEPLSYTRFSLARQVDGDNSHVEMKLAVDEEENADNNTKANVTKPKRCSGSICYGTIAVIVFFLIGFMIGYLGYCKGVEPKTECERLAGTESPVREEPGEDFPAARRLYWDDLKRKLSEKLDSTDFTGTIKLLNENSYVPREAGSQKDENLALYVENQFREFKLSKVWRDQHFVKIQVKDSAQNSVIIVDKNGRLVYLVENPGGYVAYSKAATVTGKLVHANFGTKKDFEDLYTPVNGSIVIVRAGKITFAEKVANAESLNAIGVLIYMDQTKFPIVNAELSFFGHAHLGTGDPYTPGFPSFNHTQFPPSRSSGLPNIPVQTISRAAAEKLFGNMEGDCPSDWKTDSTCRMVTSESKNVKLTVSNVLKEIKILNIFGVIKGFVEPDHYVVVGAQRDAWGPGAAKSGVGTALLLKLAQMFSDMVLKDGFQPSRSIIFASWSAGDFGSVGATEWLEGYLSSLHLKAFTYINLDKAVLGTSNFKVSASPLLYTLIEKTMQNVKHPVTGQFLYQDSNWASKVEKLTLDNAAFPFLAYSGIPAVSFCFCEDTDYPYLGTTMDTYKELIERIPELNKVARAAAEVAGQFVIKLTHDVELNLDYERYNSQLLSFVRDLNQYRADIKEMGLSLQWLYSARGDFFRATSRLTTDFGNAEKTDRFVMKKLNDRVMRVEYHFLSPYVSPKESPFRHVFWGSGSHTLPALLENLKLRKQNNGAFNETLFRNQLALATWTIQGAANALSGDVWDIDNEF
UniProt Q96BS2: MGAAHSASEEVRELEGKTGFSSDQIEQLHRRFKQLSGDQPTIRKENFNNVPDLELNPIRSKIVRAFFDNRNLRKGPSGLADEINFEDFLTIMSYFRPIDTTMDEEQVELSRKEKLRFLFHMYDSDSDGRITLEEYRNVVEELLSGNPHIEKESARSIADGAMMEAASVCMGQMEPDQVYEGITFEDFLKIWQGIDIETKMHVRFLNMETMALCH
UniProt Q66K14, whole entry: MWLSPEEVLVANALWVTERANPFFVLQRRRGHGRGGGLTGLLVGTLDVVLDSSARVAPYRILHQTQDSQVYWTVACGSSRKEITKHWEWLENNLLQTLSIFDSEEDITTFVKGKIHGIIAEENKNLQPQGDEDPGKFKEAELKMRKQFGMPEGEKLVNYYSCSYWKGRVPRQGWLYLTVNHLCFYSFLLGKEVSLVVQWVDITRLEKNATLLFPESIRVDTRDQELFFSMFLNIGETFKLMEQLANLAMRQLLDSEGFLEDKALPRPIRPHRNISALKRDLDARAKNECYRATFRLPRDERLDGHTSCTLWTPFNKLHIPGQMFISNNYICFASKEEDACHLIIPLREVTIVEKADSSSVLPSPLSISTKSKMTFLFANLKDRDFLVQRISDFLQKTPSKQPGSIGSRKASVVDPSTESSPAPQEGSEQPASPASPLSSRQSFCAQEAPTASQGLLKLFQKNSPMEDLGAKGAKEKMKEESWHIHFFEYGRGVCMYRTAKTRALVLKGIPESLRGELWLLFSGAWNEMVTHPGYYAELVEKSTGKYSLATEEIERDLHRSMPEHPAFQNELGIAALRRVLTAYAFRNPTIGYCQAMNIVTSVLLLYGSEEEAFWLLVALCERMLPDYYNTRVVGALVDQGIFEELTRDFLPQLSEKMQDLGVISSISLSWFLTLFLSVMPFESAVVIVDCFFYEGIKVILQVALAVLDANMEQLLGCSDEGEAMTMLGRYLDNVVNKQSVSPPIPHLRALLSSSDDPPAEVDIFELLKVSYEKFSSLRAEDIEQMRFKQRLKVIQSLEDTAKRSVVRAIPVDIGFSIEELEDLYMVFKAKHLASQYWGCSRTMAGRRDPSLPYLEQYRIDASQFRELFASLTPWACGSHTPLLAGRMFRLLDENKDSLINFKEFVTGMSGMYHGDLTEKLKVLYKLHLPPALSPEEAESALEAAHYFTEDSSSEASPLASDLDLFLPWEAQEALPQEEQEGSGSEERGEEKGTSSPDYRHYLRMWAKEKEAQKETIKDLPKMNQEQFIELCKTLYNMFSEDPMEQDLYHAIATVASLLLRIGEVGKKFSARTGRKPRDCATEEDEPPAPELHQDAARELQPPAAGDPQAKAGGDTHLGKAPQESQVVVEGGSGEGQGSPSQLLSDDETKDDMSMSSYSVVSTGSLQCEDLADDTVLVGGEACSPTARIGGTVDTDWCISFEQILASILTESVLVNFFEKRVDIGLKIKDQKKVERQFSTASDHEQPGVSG
UniProt P30626: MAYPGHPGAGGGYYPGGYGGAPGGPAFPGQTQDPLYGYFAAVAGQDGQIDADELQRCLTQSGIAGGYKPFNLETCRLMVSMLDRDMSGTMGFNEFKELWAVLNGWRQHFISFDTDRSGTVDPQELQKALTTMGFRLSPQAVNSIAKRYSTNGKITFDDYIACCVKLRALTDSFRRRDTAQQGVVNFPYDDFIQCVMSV
UniProt Q92673: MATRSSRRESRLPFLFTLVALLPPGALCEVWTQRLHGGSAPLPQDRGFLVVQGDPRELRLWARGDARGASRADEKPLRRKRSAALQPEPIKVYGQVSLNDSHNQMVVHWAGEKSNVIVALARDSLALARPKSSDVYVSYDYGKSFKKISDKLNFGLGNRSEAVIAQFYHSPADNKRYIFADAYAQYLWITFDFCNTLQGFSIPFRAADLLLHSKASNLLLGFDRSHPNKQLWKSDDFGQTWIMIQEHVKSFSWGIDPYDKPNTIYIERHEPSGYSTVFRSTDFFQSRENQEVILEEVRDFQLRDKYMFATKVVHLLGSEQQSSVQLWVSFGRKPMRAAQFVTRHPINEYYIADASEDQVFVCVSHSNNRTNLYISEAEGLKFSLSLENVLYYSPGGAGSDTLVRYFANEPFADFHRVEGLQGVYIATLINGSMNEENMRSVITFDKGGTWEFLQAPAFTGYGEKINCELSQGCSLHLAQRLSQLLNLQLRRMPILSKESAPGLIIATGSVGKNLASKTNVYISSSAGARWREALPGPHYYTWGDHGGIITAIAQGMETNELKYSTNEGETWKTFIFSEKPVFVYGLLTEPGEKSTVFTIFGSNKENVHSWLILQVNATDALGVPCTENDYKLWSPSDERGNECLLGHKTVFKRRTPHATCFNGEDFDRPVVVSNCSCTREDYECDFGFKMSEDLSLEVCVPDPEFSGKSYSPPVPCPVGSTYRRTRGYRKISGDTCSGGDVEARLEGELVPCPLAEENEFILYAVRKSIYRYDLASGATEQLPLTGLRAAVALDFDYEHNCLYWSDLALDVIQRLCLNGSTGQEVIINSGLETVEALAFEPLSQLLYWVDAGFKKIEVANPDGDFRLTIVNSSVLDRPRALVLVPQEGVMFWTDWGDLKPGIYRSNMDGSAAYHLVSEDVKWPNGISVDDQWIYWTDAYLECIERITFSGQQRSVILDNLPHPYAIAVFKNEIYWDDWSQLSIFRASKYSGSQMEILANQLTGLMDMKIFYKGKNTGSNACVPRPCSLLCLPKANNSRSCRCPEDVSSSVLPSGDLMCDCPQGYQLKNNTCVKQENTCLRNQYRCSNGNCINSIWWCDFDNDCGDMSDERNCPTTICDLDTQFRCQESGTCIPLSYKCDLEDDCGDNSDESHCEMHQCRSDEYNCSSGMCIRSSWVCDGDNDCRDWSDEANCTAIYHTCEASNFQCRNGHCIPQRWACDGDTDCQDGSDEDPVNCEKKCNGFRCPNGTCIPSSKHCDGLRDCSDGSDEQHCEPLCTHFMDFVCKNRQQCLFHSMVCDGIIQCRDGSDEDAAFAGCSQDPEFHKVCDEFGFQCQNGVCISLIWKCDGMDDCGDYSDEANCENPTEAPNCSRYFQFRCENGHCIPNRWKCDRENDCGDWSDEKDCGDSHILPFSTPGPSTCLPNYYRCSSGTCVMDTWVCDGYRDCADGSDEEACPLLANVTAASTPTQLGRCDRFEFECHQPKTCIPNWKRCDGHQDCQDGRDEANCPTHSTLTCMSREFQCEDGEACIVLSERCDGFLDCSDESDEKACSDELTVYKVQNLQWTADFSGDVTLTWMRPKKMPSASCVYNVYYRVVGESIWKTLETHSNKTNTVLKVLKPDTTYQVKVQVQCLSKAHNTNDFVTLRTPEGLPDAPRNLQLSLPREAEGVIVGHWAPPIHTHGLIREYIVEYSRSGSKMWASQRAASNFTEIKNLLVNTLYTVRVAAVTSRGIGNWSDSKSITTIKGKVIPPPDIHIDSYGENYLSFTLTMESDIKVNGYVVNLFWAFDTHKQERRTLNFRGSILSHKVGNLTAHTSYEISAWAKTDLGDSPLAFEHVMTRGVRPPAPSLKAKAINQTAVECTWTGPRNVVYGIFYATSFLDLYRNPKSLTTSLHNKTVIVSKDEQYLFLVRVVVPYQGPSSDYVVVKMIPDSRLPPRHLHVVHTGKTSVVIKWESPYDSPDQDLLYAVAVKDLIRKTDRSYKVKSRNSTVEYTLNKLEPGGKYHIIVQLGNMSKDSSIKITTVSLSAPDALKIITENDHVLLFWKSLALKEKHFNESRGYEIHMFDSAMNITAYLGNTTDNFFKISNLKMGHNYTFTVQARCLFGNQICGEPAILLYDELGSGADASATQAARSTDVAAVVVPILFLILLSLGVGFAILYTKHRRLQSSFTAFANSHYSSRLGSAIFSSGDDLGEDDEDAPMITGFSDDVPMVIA
UniProt Q8N0X7: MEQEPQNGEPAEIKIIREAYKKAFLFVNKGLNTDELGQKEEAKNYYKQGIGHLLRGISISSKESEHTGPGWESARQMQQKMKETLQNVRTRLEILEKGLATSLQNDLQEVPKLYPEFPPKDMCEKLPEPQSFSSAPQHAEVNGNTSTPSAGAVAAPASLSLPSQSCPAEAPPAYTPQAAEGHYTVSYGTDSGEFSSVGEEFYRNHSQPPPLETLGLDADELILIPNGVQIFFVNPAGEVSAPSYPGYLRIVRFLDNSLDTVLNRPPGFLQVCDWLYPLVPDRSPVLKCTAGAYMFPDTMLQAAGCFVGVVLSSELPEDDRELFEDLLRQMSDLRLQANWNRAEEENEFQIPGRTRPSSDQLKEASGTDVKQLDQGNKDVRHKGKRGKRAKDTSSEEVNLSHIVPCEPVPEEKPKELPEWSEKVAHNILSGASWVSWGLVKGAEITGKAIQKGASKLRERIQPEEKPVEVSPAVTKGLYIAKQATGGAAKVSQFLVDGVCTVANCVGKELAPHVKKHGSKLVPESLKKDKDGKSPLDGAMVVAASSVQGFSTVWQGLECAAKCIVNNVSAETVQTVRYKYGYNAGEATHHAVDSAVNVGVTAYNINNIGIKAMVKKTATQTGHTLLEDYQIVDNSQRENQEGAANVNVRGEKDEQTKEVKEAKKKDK
UniProt O15533, whole entry: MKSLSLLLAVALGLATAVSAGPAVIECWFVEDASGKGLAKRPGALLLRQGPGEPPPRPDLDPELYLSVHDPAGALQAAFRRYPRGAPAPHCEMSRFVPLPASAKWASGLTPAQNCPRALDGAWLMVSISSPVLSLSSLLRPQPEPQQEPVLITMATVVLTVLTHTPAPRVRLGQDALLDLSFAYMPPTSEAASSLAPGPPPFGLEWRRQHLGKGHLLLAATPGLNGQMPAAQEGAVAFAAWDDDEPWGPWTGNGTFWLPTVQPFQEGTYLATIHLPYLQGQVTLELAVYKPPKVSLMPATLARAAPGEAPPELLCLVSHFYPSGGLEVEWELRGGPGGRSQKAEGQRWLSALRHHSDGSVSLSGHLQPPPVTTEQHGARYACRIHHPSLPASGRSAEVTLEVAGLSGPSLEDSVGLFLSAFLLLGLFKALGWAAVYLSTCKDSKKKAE
UniProt Q14241: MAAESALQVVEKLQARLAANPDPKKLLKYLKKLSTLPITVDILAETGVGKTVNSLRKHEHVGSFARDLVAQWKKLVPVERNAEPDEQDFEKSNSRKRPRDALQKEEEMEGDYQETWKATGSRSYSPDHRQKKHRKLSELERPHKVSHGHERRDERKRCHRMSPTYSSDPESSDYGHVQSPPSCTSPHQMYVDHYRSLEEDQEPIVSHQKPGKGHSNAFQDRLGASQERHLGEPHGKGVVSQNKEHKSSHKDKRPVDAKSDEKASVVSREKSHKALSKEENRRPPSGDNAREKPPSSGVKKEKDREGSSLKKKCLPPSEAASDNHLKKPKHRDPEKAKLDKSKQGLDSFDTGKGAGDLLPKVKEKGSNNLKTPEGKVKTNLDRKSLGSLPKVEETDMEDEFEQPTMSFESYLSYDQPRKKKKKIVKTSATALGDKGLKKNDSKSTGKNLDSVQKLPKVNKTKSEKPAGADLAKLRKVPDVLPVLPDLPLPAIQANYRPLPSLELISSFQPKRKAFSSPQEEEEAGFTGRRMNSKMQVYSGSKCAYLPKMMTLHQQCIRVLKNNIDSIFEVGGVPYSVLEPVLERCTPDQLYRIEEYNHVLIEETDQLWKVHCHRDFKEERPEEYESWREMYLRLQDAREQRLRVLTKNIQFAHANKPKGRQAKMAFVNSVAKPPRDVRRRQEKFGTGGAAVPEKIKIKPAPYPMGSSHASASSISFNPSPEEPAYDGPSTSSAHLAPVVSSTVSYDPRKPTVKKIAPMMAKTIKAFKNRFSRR

Compound: COc1ccc(Cn2ccc3cc(C)c(C(=O)NO)cc32)cc1
Assay: dose-dependent thermal stabilisation call (2D-TPP, DLPTP, 10% FDR) (binary (1 = stabilised)); higher = stabilised by the compound
Conditions: system: HL-60 intact cells; concentration range 0.04-10 µM
Description: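 2D thermal proteome profiling in intact HL-60 cells treated with BRD-3811 (0, 0.04, 0.29, 2, 10 uM) for 90 min at 37 C, then heated 3 min at one of 12 temperatures (42-63.9 C). Soluble protein was quantified by TMT10 MS. The value is the DLPTP call of the paper: dose-dependent thermal stabilisation over all temperatures at 10% FDR (F-test of a dose-response against a flat model); one experiment, one call per tested protein.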

Row | Target | dose-dependent thermal stabilisation call
1 | TDRKH (UniProt Q9Y2W6) | inactive: 0
2 | TFR2 (UniProt Q9UP52) | inactive: 0
3 | TDP1 (UniProt Q9NUW8) | inactive: 0
4 | THADA (UniProt Q6YHU6) | inactive: 0
5 | TFRC (UniProt P02786) | inactive: 0
6 | STK24 (UniProt Q9Y6E0) | inactive: 0
7 | SPRY1 (UniProt O43609) | inactive: 0
8 | STARD7 (UniProt Q9NQZ5) | inactive: 0
9 | STK3 (UniProt Q13188) | inactive: 0
10 | TESC (UniProt Q96BS2) | inactive: 0
11 | TBC1D9B (UniProt Q66K14) | inactive: 0
12 | SRM (UniProt P19623) | inactive: 0
13 | SUMO1 (UniProt P63165) | inactive: 0
14 | TCP1 (UniProt P17987) | inactive: 0
15 | TES (UniProt Q9UGI8) | inactive: 0
16 | SSX2IP (UniProt Q9Y2D8) | inactive: 0
17 | TBCD (UniProt Q9BTW9) | inactive: 0
18 | TCERG1 (UniProt O14776) | inactive: 0
19 | STAT2 (UniProt P52630) | inactive: 0
20 | SRI (UniProt P30626) | inactive: 0

Row | Target | dose-dependent thermal stabilisation call
21 | SRP54 (UniProt P61011) | inactive: 0
22 | TERF2 (UniProt Q15554) | inactive: 0
23 | TERF2IP (UniProt Q9NYB0) | inactive: 0
24 | STX6 (UniProt O43752) | inactive: 0
25 | STK38L (UniProt Q9Y2H1) | inactive: 0
26 | SSFA2 (UniProt P28290) | inactive: 0
27 | TCOF1 (UniProt Q13428) | inactive: 0
28 | SORL1 (UniProt Q92673) | inactive: 0
29 | SRGAP2 (UniProt O75044) | inactive: 0
30 | SPG20 (UniProt Q8N0X7) | inactive: 0
31 | TAF8 (UniProt Q7Z7C8) | inactive: 0
32 | TAPBP (UniProt O15533) | inactive: 0
33 | STMN1 (UniProt P16949) | inactive: 0
34 | ST7 (UniProt Q9NRC1) | inactive: 0
35 | STAM (UniProt Q92783) | inactive: 0
36 | SUPV3L1 (UniProt Q8IYB8) | inactive: 0
37 | ST3GAL6 (UniProt Q9Y274) | inactive: 0
38 | SUDS3 (UniProt Q9H7L9) | inactive: 0
39 | TCEB3 (UniProt Q14241) | inactive: 0
40 | TAX1BP1 (UniProt Q86VP1) | inactive: 0

Some of the entries so far, tab-delimited.
Row	Target	dose-dependent thermal stabilisation call
23	TERF2IP (UniProt Q9NYB0)	inactive: 0
24	STX6 (UniProt O43752)	inactive: 0
25	STK38L (UniProt Q9Y2H1)	inactive: 0
26	SSFA2 (UniProt P28290)	inactive: 0
27	TCOF1 (UniProt Q13428)	inactive: 0
28	SORL1 (UniProt Q92673)	inactive: 0
29	SRGAP2 (UniProt O75044)	inactive: 0
30	SPG20 (UniProt Q8N0X7)	inactive: 0
31	TAF8 (UniProt Q7Z7C8)	inactive: 0
32	TAPBP (UniProt O15533)	inactive: 0
33	STMN1 (UniProt P16949)	inactive: 0
